In article PMC7405549:
These are yes or no findings as the source states them, for the method shown. Binding seen in cells or lysates may run through a third protein. A result given as binding can be weak or reduced; the word gives no strength.

Molecular target: Acheron/LARP6 (Manduca sexta) (Manduca sexta (endogenous in ISMs))
Assay: co-IP; day 18 Manduca ISM extracts, anti-Acheron antibody, protein A sepharose; 10 mM Tris pH 7.4, 1% triton, 0.5% NP-40, 150 mM NaCl; immunoblot with anti-mouse BAD antibody

binding: binds
B1: Manduca BBH1 (BAD/BNIP3 homology-1) (protein, UniProt A0A861LZ68 1-192)
chain: MMESKSLLPEEMAESWVELNSGGGLAAVENEYIRLLREAQRESRDSSVRHSRASSVKGSPKSPPNSPNLEPSTEDELKGVYINCWRDDSNDWVWEWSSRPDQVPPKDWRFKHPASARGPPSATSSIEVLEQQLAPPPMQQSHCLSVRRTCLFSRGAIAAVLVTNIVSLLLGAGIGVWLSKKGMLPPRLIIIN
